According to paper doi:10.1101/2023.03.02.530905 (bioRxiv, 2023):
Like-named read-outs stand apart in the source and are kept apart here. These are yes or no findings as the source states them, for the method shown. For part of these data: In cells and extracts the contact can be indirect. Some entries that bind do so weakly or less than the wild type. For part of these data: Sequences can lack the tags named with a protein. Blank lines part the entries; values can stand above or below the molecule they belong to.

Protein sequences, listed by entry. Tags and fused reporters are not part of them.
UniProt Q9BQQ3: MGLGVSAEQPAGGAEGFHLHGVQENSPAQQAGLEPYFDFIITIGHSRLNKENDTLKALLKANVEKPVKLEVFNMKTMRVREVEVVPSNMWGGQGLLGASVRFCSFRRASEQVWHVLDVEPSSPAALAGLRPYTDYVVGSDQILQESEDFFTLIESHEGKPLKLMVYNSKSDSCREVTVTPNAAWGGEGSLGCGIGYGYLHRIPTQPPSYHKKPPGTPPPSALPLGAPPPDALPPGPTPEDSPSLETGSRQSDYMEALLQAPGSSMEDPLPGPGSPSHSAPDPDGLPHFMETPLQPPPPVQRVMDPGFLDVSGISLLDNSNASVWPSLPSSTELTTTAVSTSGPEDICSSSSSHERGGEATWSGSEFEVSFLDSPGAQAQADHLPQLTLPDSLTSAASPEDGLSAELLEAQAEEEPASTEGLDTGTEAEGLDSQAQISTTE
UniProt P51114: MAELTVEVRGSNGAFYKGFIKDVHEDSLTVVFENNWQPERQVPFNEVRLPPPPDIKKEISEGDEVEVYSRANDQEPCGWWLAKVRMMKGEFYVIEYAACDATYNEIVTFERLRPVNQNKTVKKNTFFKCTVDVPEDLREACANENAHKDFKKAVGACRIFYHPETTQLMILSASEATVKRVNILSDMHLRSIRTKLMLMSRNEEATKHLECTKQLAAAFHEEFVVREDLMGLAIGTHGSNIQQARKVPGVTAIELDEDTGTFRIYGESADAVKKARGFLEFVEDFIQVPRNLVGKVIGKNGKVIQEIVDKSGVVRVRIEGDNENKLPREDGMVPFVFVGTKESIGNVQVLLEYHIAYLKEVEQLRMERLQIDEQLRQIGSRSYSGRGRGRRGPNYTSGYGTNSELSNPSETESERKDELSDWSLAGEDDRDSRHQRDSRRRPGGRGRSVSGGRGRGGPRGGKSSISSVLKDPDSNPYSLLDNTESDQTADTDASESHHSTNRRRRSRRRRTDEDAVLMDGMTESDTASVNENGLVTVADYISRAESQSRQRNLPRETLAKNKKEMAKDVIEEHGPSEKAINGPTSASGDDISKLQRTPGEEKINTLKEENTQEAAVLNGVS
UniProt P11940: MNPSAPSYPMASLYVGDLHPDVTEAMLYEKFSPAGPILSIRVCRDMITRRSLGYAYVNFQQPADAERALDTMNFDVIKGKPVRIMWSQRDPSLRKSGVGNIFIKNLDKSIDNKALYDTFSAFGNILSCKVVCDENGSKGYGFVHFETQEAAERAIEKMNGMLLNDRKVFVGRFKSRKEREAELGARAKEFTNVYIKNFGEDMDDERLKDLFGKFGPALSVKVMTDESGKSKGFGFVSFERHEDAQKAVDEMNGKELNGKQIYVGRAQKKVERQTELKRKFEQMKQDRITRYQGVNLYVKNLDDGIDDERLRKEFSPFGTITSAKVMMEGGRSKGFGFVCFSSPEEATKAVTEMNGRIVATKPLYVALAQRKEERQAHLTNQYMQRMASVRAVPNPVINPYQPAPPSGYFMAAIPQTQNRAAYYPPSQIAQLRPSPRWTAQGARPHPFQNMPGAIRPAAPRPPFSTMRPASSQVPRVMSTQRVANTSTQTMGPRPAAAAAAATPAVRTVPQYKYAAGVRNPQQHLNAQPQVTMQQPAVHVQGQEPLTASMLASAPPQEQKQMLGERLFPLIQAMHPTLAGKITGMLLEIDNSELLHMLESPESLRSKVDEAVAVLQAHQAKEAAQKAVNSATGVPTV
UniProt Q13283: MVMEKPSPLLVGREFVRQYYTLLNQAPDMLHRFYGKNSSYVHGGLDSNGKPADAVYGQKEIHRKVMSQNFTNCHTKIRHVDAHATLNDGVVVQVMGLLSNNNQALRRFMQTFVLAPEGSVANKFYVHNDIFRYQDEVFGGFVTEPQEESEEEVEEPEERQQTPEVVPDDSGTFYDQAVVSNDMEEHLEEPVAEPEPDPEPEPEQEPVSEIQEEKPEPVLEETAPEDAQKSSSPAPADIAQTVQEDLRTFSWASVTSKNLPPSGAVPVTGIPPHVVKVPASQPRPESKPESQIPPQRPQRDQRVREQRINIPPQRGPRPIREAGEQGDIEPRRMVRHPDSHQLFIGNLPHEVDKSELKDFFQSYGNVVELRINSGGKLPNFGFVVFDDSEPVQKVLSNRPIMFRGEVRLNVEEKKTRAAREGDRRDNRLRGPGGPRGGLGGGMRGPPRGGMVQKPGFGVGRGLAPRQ

Columns and labels:
[1] = target: GRASP65 (endogenous, untagged) (human (endogenous in SV589)) (UniProt Q9BQQ3); assay: co-IP
[2] = target: GRASP65-3xFlag-mAID (human (endogenous in RC65, SV589-derived)) (UniProt Q9BQQ3); assay: co-IP
[3] = target: T1, GM130 (human (endogenous in SV589)) (UniProt Q08379); assay: co-IP
T1 sequence: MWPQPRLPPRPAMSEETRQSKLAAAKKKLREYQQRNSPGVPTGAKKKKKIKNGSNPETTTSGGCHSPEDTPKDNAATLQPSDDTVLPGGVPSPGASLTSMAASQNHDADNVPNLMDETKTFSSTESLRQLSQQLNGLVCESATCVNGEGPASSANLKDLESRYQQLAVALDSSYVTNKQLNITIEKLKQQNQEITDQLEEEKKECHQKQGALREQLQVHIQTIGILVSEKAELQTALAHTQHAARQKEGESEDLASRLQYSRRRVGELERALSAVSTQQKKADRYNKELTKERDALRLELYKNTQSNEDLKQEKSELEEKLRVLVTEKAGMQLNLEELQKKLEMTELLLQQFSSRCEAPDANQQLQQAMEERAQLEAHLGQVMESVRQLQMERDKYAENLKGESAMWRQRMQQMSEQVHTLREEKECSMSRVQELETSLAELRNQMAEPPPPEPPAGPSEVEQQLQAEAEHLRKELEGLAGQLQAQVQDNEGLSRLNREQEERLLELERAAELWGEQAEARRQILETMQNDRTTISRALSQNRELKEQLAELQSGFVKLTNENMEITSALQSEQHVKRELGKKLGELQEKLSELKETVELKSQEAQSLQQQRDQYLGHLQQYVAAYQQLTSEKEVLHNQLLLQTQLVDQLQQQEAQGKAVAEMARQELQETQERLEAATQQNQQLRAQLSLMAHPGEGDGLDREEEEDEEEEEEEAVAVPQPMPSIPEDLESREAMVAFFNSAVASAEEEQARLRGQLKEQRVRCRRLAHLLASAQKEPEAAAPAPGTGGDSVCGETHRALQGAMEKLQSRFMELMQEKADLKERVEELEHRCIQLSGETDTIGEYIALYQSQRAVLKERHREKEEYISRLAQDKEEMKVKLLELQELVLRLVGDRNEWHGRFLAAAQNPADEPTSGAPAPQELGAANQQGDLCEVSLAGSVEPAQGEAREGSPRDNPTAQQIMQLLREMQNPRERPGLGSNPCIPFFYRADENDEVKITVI

[4] = target: T1, GM130 (human (endogenous in SV589)); assay: co-IP; remark: listed apart in the source
GM130 N122-his (rat) = GM130 N122-his (rat) (UniProt Q62839); assay: cross-linking
[5] = target: GRASP65 (endogenous, untagged) (human (endogenous in SV589)) (UniProt Q9BQQ3); assay: co-IP; remark: listed apart in the source
[6] = target: GRASP65-3xFlag-mAID (human (endogenous in RC65, SV589-derived)) (UniProt Q9BQQ3); assay: co-IP; remark: listed apart in the source

binding [1]: binds
binding [2]: binds
Molecule: FXR1 (Fragile X mental retardation syndrome-related protein 1) (from UniProt P51114 1-621)

binding [2]: binds
Molecule: PABPC1 (PABP/Polyadenylate-binding protein 1) (from UniProt P11940 1-636)

binding [2]: binds
Molecule: G3BP1 (G3BP Stress Granule Assembly Factor 1) (from UniProt Q13283 1-466)

Further lines, the molecule ahead of its results:

Molecule: GRASP65 (endogenous, untagged) (from UniProt Q9BQQ3 1-440)
binding [3]: binds
binding [4]: binds

B1: GM130 N122-his (domain or fragment, UniProt Q62839 1-122)
chain: MWPPRFPPPRPGMSEETRQSKLAAAKKKLREYQQKNSPGVPAGAKKKKKIKNGHSPERTSASDCQSAENVPTDHTAPAPPSTAAATMFLGVVPSPDADLIQSHDAGNCSNLMEETKTFSSTE
binding (GM130 N122-his (rat)): no binding (tested: 1 mg/ml or 2 mg/ml)

B2: GM130 (protein, UniProt Q08379 1-1002)
chain: T1 sequence
binding [5]: binds
binding [6]: binds
